# Measurements reported in the supplement of paper PMC10470496.
# Structures can show the parent of a compound that is named as a salt. The list shows a part of the results. Many values rest on one well or one pass, so single values are uncertain.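 The strains were three CDC resistance-bank clinical C. auris isolates from clades III, IV and I, cultured in RPMI-1640 at 35°C. Growth was background-corrected OD600 versus vehicle-only wells on the same plate. A hit needed >50% inhibition in two or more strains plus a plate-corrected B-score exceeding 0.1.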
# Tests used:
# Test in all cases: growth relative to vehicle control (OD600 ratio) (fraction); higher = less inhibition
# Conditions in all cases: 24 h
# C. auris AR-384 = system: C. auris AR-384
# C. auris AR-386 = system: C. auris AR-386
# C. auris AR-387 = system: C. auris AR-387
Compound,growth (C. auris AR-384; 1 µM),growth (C. auris AR-384; 10 µM),growth (C. auris AR-386; 1 µM),growth (C. auris AR-386; 10 µM),growth (C. auris AR-387; 1 µM),growth (C. auris AR-387; 10 µM)
NS(=O)(=O)c1cc2c(cc1Cl)N=CNS2(=O)=O [Chlorothiazide],1.34,0.82,0.61,1.22,0.88,0.98
NCCCC[C@H](N[C@@H](CCc1ccccc1)C(=O)O)C(=O)N1CCC[C@H]1C(=O)O [Lisinopril],0.69,0.51,0.88,0.8,0.66,0.61
Oc1c(Br)cc(Br)c2cccnc12 [Broxyquinoline],0.19,0.17,0.01,0.05,0.07,0.04
C[C@@H]1CC(=O)NN=C1c1ccc(NN=C(C#N)C#N)cc1 [Levosimendan],1.2,1.26,1.39,1,1.39,1.12
OCCN1CCN(CCCN2c3ccccc3Sc3ccc(Cl)cc32)CC1 [Perphenazine],0.8,0.7,0.86,1.07,0.86,0.9
O=C(O)CCNC(=O)c1ccccc1 [Betamipron],1,0.76,1.04,1.08,0.81,0.8
COc1ccc(NS(=O)(=O)c2ccc(N)cc2)nn1 [Sulfamethoxypyridazine],0.82,0.85,1.09,0.82,1.06,0.86
CCCc1cc(=O)[nH]c(=S)[nH]1 [Propylthiouracil],0.74,0.51,0.74,0.95,0.76,0.59
COCCCN1CCC(NC(=O)c2cc(Cl)c(N)c3c2OCC3)CC1 [Prucalopride],1.43,1.37,0.99,1.24,1.2,1.05
CCc1ccc(CCOc2ccc(CC3SC(=O)NC3=O)cc2)nc1 (stereo unspecified) [Pioglitazone HCl],0.84,1.11,1.08,1.47,1.51,1.15
CCN(CC)C(=O)N1CCN(C)CC1 [Diethylcarbamazine citrate],0.9,0.72,0.99,0.63,0.62,0.68
Cn1c(=O)c2c(ncn2CC2OCCO2)n(C)c1=O [Doxofylline],0.91,0.88,0.54,1.08,0.81,0.75
CC(=O)Oc1cccc2c1C(=O)c1c(OC(C)=O)cc(C(=O)O)cc1C2=O [Diacerein],0.75,0.83,0.68,0.72,0.86,0.73
"Cc1cc(Nc2cc(N3CCN(C)CC3)nc(Sc3ccc(NC(=O)C4CC4)cc3)n2)n[nH]1 [Tozasertib (VX-680, MK-0457)]",0.83,0.88,0.91,0.75,0.9,0.91
"CC1(C)OC(=O)NC1=O [5,5-Dimethyloxazolidine-2,4-dione]",0.9,0.75,0.97,0.88,0.72,0.78
CC(C)(C)C(=O)C(Oc1ccc(Cl)cc1)n1ccnc1 (stereo unspecified) [Climbazole],0.87,0.64,0.83,0.91,0.37,0.14
Cn1c(=O)c2c(ncn2CC(O)CO)n(C)c1=O (stereo unspecified) [Dyphylline],1.03,1.44,1.32,0.81,1.07,1.12
C[C@H](CCC(=O)O)[C@H]1CC[C@H]2[C@@H]3[C@H](O)C[C@@H]4C[C@H](O)CC[C@]4(C)[C@H]3C[C@H](O)[C@]12C [Cholic acid],0.81,0.89,1.13,1,0.87,0.8
O=C([O-])c1ccccc1O.[Na+] [Sodium salicylate],0.98,0.75,0.86,1.06,1.03,1.16
CCCNCC(O)COc1ccccc1C(=O)CCc1ccccc1 (stereo unspecified) [Propafenone HCl],0.93,1,0.77,0.78,0.89,0.73
OCCN1CCN(CC/C=C2/c3ccccc3Sc3ccc(C(F)(F)F)cc32)CC1 [Flupenthixol dihydrochloride],0.94,1.2,0.94,1.06,0.93,1.11
Nc1c2c(nc3ccccc13)CCCC2 [Tacrine HCl],0.85,0.75,0.62,0.89,0.76,0.86
C=CC(=O)Nc1cccc(Oc2nc(Nc3ccc(N4CCN(C)CC4)cc3)nc3ccsc23)c1,0.95,0.78,0.64,0.5,0.61,0.69

Compound,growth (C. auris AR-384; 1 µM),growth (C. auris AR-384; 10 µM),growth (C. auris AR-386; 1 µM),growth (C. auris AR-386; 10 µM),growth (C. auris AR-387; 1 µM),growth (C. auris AR-387; 10 µM)
CC(C)C(=O)Nc1ccc([N+](=O)[O-])c(C(F)(F)F)c1 [Flutamide],1.2,1.03,1.09,1.17,1.17,1.08
COc1cc(C(=O)O)ccc1NC(=O)[C@@H]1N[C@@H](CC(C)(C)C)[C@](C#N)(c2ccc(Cl)cc2F)[C@H]1c1cccc(Cl)c1F [Idasanutlin (RG-7388)],0.98,0.38,0.62,0.41,0.63,0.49
C=CC[N+]1([C@H]2C[C@H]3[C@@H]4CC[C@H]5C[C@H](O)[C@@H](N6CCOCC6)C[C@]5(C)[C@H]4CC[C@]3(C)[C@H]2OC(C)=O)CCCC1 [Rocuronium Bromide],0.86,0.93,0.8,0.67,1.02,0.79
CN(Cc1cc(Br)cc(Br)c1N)C1CCCCC1 [Bromhexine HCl],0.77,1.07,0.76,0.96,1.03,0.81
CC(=O)OCC1=C(C(=O)O)N2C(=O)[C@@H](NC(=O)Cc3cccs3)[C@H]2SC1 [Cephalothin],1.2,1.37,1.29,1.21,1.11,1.48
OC[C@H]1O[C@@H](O[C@@H]2[C@@H](CO)OC(O)(CO)[C@H]2O)[C@H](O)[C@@H](O)[C@H]1O (mixture of isomers) [Lactulose],0.85,0.82,1.05,1.33,1.06,1.15
NC(=O)CC[C@H](N)C(=O)O [L-Glutamine],0.78,0.51,0.8,0.92,0.75,0.78
CCOc1nc2cccc(C(=O)OC(C)OC(=O)OC3CCCCC3)c2n1Cc1ccc(-c2ccccc2-c2nn[nH]n2)cc1 (stereo unspecified) [Candesartan Cilexetil],1.14,1.4,0.92,1.25,1.39,1.45
CC[C@H](C)C(=O)O[C@H]1C[C@H](O)C=C2C=C[C@H](C)[C@H](CC[C@@H](O)C[C@@H](O)CC(=O)O)[C@H]21 [Pravastatin sodium],0.98,0.78,0.85,0.96,0.78,0.99
CCCCCOC(=O)Nc1nc(=O)n([C@@H]2O[C@H](C)[C@@H](O)[C@H]2O)cc1F [Capecitabine],1.52,0.88,0.9,1.32,1.09,0.99
O=C(O)c1cccc(-c2noc(-c3ccccc3F)n2)c1 [Ataluren (PTC124)],1.26,1.54,1.44,1.41,1.24,1.22
O=c1ccc2ccccc2o1 [Coumarin],0.89,0.85,0.98,0.81,0.94,0.96
N#C[C@@H]1C[C@@H]2C[C@@H]2N1C(=O)[C@@H](N)C12CC3CC(CC(O)(C3)C1)C2 [Saxagliptin hydrate],1.23,1.09,0.96,1.21,0.79,0.86
CC(=O)OCC(=O)[C@@]1(O)CC[C@H]2[C@@H]3CCC4=CC(=O)C=C[C@]4(C)[C@H]3[C@@H](O)C[C@@]21C [Prednisolone Acetate],0.88,1.11,0.85,1.24,0.78,0.86
CCCCN(CCCC)CC(O)c1cc(Cl)cc2c1-c1ccc(Cl)cc1/C2=C/c1ccc(Cl)cc1 (stereo unspecified) [Lumefantrine],0.95,1.12,0.61,0.69,0.76,0.82
C[C@H]1[C@H](NC(=O)/C(=N\OC(C)(C)C(=O)O)c2csc(N)n2)C(=O)N1S(=O)(=O)O [Aztreonam],0.75,1.27,1.15,0.82,0.88,0.9
"CNC(=O)[C@H](Cc1c[nH]c2ccccc12)NC(=O)[C@@H](CC(=O)NO)CC(C)C [Ilomastat (GM6001, Galardin)]",1.05,1.24,0.98,1.02,0.84,0.75
O=c1sn(-c2cccc3ccccc23)c(=O)n1Cc1ccccc1 [Tideglusib],0.91,0.72,0.6,0.72,0.73,0.92
NC(=O)OCC(COC(N)=O)c1ccccc1 [Felbamate],1.1,1.39,1.33,1.28,1.4,1.26
CN1CCN(c2cc3c(cc2F)c(=O)c(C(=O)O)cn3-c2ccc(F)cc2)CC1 [Difloxacin HCl],0.84,0.73,0.97,1,1.03,0.94
O=C(O)c1ccc2c(c1)nc(Nc1cccc(Cl)c1)c1ccncc12 [Silmitasertib (CX-4945)],0.72,0.75,0.93,0.63,0.65,0.72
C[C@]12CC[C@@H]3c4ccc(O)cc4C[C@@H](CCCCCCCCC[S+]([O-])CCCC(F)(F)C(F)(F)F)[C@H]3[C@@H]1CC[C@@H]2O (stereo partly specified) [Fulvestrant],1.09,0.93,0.6,0.92,1.03,0.91
N[C@@H](Cc1cc(I)c(Oc2ccc(O)c(I)c2)c(I)c1)C(=O)O [Liothyronine Sodium],1.19,1.28,1.37,1.03,1.47,1.17

# Two compounds from above with just growth (C. auris AR-387; 1 µM).
Compound,growth (C. auris AR-387; 1 µM)
CN(Cc1cc(Br)cc(Br)c1N)C1CCCCC1 [Bromhexine HCl],1.03
CC(=O)OCC1=C(C(=O)O)N2C(=O)[C@@H](NC(=O)Cc3cccs3)[C@H]2SC1 [Cephalothin],1.11

# Whole records, looked up by structure. Order of values: growth (C. auris AR-384; 1 µM) | growth (C. auris AR-384; 10 µM) | growth (C. auris AR-386; 1 µM) | growth (C. auris AR-386; 10 µM) | growth (C. auris AR-387; 1 µM) | growth (C. auris AR-387; 10 µM)
# CCCCCOC(=O)Nc1nc(=O)n([C@@H]2O[C@H](C)[C@@H](O)[C@H]2O)cc1F [Capecitabine] as listed: 1.52 | 0.88 | 0.9 | 1.32 | 1.09 | 0.99
# NC(=O)CC[C@H](N)C(=O)O [L-Glutamine] as listed: 0.78 | 0.51 | 0.8 | 0.92 | 0.75 | 0.78
